Measured values as given in paper doi:10.1101/116277.
Results are given in words; binding and its absence hold for the method and conditions named. Binding seen in cells or lysates may run through a third protein. A yes stands for co-enrichment or nearness to the bait. Other partners may have been found. For part of these data: Sequences can lack the tags named with a protein.

By UniProt entry, the sequences of proteins in these tests, tags left out. Where a name states a change or a piece, a line headed by the entry shows the natural chain unless it says otherwise. Chains listed by the source or under a name are the forms on record and can include a tag or linker.
GFP-Nup185 (I7MFN0, form named): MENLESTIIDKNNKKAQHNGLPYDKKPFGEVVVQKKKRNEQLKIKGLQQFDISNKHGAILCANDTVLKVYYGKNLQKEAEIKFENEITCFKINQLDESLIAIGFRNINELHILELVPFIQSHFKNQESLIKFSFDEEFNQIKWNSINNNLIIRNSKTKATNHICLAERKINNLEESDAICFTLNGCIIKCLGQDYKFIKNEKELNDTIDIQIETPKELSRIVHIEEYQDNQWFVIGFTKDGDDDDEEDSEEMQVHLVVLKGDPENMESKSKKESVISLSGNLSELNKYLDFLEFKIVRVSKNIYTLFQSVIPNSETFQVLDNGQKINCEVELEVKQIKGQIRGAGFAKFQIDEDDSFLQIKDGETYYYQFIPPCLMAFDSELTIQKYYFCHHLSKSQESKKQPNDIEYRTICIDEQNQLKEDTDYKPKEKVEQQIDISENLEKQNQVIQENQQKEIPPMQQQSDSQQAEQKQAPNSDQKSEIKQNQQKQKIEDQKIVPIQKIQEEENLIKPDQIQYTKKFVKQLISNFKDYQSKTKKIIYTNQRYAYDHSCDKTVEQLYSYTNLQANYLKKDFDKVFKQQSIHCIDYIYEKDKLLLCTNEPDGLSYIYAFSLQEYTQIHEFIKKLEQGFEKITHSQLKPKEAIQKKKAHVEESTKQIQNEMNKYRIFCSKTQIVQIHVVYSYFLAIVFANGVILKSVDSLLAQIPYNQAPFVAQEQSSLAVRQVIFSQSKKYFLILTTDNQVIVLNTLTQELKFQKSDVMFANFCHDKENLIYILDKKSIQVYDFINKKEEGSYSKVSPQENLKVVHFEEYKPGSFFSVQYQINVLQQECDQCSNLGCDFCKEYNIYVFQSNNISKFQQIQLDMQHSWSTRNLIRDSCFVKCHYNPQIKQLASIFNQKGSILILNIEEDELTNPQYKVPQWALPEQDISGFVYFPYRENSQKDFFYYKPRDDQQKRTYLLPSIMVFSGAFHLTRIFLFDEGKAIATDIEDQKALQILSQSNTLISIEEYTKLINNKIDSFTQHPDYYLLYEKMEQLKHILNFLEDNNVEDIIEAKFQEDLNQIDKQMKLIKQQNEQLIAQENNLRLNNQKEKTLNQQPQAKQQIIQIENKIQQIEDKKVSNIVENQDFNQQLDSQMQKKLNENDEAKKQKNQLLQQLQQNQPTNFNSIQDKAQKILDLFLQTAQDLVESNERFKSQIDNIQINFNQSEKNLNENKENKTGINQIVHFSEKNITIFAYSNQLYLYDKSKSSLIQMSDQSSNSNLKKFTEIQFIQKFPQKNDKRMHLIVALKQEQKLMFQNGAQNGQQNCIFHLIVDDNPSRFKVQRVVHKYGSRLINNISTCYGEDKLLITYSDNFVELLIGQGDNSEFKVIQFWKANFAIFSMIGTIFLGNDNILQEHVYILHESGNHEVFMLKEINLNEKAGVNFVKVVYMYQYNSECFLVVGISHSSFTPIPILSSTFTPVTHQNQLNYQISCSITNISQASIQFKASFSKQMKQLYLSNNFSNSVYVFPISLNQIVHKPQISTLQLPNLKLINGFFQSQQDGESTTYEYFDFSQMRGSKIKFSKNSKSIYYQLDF
UniProt Q236D1: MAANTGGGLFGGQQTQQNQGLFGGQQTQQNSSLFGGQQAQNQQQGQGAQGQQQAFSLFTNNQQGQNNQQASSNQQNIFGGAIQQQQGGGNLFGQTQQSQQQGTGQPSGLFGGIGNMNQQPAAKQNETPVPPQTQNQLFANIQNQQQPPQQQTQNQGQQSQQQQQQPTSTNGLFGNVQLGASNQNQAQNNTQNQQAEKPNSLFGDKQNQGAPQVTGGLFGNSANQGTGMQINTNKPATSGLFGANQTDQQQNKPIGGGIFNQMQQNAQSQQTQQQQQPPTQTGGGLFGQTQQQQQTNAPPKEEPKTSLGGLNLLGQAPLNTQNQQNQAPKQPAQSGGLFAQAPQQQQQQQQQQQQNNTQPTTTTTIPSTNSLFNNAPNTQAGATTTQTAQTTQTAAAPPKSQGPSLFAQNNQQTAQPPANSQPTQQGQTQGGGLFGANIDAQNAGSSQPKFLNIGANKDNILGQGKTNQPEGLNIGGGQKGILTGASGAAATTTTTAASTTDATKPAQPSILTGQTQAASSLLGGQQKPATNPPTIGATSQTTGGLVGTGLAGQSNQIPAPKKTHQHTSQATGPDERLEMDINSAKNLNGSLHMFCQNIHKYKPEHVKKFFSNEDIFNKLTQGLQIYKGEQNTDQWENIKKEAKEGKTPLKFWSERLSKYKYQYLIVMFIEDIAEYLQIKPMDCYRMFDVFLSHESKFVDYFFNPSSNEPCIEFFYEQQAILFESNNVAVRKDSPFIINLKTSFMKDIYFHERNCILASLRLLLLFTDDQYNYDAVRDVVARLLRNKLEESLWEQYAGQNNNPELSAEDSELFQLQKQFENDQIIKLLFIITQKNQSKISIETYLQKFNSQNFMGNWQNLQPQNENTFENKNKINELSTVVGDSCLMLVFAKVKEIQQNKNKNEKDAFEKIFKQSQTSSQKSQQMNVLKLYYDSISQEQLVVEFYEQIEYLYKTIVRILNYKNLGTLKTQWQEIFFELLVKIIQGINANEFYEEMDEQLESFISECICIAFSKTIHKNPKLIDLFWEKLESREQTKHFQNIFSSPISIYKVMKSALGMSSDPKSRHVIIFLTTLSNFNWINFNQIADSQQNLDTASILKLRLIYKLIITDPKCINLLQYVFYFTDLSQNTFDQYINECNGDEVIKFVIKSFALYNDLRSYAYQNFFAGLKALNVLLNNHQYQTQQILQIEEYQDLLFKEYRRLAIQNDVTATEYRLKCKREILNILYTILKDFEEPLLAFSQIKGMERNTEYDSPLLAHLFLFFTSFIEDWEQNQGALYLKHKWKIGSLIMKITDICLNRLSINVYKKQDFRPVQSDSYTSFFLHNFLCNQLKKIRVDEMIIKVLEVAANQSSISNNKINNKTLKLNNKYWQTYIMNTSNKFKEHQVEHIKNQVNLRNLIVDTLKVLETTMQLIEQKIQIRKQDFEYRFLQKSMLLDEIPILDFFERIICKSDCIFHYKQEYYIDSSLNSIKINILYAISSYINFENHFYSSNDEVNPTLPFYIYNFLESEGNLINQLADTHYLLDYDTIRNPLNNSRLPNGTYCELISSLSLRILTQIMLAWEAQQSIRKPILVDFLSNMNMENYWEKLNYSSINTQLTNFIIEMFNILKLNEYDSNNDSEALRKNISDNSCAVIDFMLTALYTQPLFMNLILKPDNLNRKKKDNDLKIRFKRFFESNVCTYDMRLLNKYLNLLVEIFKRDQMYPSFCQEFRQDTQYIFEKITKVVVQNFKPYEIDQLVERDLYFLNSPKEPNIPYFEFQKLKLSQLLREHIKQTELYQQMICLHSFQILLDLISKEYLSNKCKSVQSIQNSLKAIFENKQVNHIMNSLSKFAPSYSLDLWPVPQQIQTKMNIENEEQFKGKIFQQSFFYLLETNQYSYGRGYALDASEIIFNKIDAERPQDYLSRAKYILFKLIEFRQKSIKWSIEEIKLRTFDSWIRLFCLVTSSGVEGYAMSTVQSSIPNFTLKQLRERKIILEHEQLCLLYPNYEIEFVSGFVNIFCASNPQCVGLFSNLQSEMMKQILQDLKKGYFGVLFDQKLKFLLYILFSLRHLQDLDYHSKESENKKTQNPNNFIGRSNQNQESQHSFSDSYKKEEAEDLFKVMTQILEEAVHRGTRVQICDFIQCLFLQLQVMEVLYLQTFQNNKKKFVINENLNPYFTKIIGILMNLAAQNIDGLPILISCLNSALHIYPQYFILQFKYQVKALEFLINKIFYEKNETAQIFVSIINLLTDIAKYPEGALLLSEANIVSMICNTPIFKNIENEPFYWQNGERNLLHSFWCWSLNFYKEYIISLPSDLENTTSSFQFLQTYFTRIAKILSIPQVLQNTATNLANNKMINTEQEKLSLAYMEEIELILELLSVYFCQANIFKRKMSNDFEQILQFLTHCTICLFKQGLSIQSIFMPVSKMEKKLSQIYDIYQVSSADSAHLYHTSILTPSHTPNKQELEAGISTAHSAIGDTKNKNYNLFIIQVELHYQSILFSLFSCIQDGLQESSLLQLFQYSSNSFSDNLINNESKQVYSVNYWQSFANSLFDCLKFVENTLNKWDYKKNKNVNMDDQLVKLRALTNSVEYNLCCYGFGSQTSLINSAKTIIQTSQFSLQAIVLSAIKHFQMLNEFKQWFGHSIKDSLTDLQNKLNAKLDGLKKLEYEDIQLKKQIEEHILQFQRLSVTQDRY

T1: GFP-TtNup93 (Tetrahymena thermophila) (UniProt Q241A4)
T1 sequence: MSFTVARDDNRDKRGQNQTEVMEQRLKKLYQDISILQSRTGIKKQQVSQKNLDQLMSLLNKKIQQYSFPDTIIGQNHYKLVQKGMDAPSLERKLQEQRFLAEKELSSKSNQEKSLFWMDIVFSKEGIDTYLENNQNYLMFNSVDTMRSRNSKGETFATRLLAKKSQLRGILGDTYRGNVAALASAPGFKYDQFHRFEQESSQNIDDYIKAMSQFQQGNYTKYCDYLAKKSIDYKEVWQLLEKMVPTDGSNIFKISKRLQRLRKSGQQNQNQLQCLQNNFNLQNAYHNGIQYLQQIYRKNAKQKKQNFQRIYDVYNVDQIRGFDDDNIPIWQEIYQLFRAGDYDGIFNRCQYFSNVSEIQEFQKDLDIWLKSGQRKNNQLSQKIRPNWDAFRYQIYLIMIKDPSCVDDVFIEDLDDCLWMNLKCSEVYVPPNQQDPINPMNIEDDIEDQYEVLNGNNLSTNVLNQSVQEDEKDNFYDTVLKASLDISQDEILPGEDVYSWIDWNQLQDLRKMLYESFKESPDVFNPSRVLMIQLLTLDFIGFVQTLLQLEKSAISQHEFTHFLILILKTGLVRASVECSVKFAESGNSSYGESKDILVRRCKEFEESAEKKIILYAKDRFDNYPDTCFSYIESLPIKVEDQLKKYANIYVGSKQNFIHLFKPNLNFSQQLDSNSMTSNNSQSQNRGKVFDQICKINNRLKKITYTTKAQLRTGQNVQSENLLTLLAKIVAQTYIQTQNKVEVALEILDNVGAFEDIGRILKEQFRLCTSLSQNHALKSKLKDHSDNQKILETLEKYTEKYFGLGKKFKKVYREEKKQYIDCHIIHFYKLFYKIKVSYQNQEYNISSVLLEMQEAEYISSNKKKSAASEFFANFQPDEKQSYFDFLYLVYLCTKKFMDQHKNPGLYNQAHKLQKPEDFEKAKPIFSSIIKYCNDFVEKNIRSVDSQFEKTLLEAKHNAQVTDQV


Columns and labels:
[1] = biological target: T1, GFP-TtNup93 (Tetrahymena thermophila); test: affinity purification with mass spectrometry
[2] = biological target: GFP-Nup185 (Tetrahymena thermophila) (UniProt I7MFN0); test: affinity purification with mass spectrometry

Molecule	binding [1]	binding [2]
Nup308 (from UniProt Q236D1 1-2675)	binds	–
TtNup58 (protein, UniProt Q23K55 1-390) MSLFNQNQGVQIGGQKPGGLFQTTTTGQQGGGLFNNQPSLQLGGNQTGGLPVFGGNQQPAAGGTIFNNPIGQQAPAQGQGGIFANQKPIVQNQTQTNNQQQIQHTVQSQTWKEAKQLYQQLQNVKKEQISIERDVNVSDNNNIYAHKPVNILPKEFFDELTNINKDIQKTEQDVAKLVDSQRELFNQIQETRKVIQQSSLSLKQTAQQVKDIQETVNELITEQQDQKQYITNFFYTFTNYLENHQFPRLILPQPFIIKAQEKFQLKLEKLQRQIDEVEQMLQVEIQKRNDEEELAFIFVIVEQLFKYFNNVTALVYEFHKHYESFRMKIVHIQDQREFGFASDLNESTKQSLNEENRYFKLLSNISDNLEKQIRKHEEEQQIKQPNEKRI	binds	–
TtTpr (protein, UniProt I7ME84 1-1392) MDSNQAADQEKQVEAQNEEQKQEQENNEQKENESEQAQTDPQISSGSNQKFDIEITDEDNDPEIENNQTIEQMKFKAYDLKAELKKVGNLAEELKVKFANLETDYDQCKDEKEELEKKYKQSIEKYGEMMKNYEHQIISLENENNIRIQQLQQQIDELKKQNEEKEQSYLNMQQQIKQDKQSFDDIQNKYEEINKHNQEQFKQNSDQWVKLVNLTEEVIFNFYNSNFFTENKDDISSQTHIILQHQQTFQQLIEKYVTFLAEQKEKNEAISDEAFNKIKSENGNGVQKTNQRVQDLQQKFEAYQQQFNKLNSESQENETKLQETKKQLEDLQNELGNKNNQIQELNEQHQKSQTEIQKLNEQITSNQQRIEELQKNENILVEKDKNINEIKEQLSALNQQIEGFKDIQNKLDTKTEEFEKLEKDFNQQKSELEEKIKSKDEEIENLSKKIQDIVEQQQEKQKQLDDLNSNLQNSNKENEQLKQEINDFKNKINNSNQDQEQQSNQLKAELKQTQEQLNDSQQKFEQADKELKDLKQQIEDEKVKLNDKSQESENLKDQLKSANEKLNESQQKLEQIQKNFDDLKQNNDLQKIVDEKQQKCEELERELKELKTQQEQVTAQVQQLNVEKEEIQTKFNQVEQEKEQLKKQEQEKIDLLSQAKQEKENNEQEINNLKQTIANLEKERTDIQIQSQEKDKQLDDAKHTLENLNKEIEQLKNQNQAIGDVNEKNKQLESEITQIKSEIEQKNTEIQSLNSKNETEISEKKQQLEDHTKQVNQLNEQIHQLSTENENLKNEIQTNQNISQTKLTDLNSEIEGFQKEIEETKLQLDDKNTQLKGLQVKLEALEKQLLEKNEEIQKVNQQLKESEQKHEAIQKQNEELQNSLKTLEEKDYNQIQNDLNQQVSDLKQKEQDLNKQLDQKLQEINQIKQQLSNETSDFMKKNVQLQQTIQQLNQTISQYQEQIERIKTDLYQSQQEKSQLQSKLNEANREIQNKEDDLNKKVEIIAELEQNNKDLKINLHNYEVKSYDLDKERFDVLEIQIQHNKEQQVQYKQAEEKIQKLEEEIKKLLADKTDSLEKLQKEIKTEQVIGEEMSKKFRSNLAELQINNEQNSLENSQKTINQLAEVVLRKVKDCFYSSTKIVQISRLFYDGSDGRNASQDNALSLIQELNEAQHASITIHKLLGFEYKKFKNILPIQYLRNDFKVINQTENTTQPLYVNENDQVAQYAIVNYEIQNNKFYVGLIQFDVVSTYFRVGFVPVNPQTKQEQWGEAIYANFCLNHEAANSKNYRNLVRINHFNPIFSIKKGYIYIRFNIQKNIFQFCDTNYQLSELSKCQFKSDLHYKLFIGMKETKGHFQIVDLKEQSRDEDINIMTQIFSNEQPQFEDLIRLFI	–	binds
